Library screen at single concentrations

A: 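Whole-cell growth test on Mycobacterium tuberculosis, read after 3 days in glucose-containing 7H9 medium; the read-out is not stated. Tested at 50 µM. Higher reads as more growth inhibition (inferred: compounds with an IC50 in retests scored well above the rest). About 69,000 compounds were tested under these conditions; 1.1% (about 760) showed 50% or more at least once.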
B: 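Whole-cell growth test on Mycobacterium tuberculosis, read after 4 days in a medium based on cholesterol and the lipid DPPC; the read-out is not stated. Compounds at 50 µM. Direction is inferred from retests: higher values go with more growth inhibition. Size under these conditions: about 69,000 compounds, about 370 of them at 50% or above in at least one test.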

Values are the deposited “Percent Effect”, in %. The controls that fix the scale are not given in the record; negative values are as filed. The compounds are a random part of those screened. Two or more numbers in one place are separate tests of the same structure; such repeats can differ widely.

| compound | A | B |
|---|---|---|
| `CCOCC1COCCC12CCN(C(=O)C1=CCCC1)CC2` (configuration not stated) | -4.181 and -16.13 | 2.003 |
| `CN1CC(c2ccccc2)CC2(CCN(Cc3ncc[nH]3)CC2)C1` (configuration not stated) | 2.241 and -7.848 | 23.74 |
| `O=C(CCCOc1ccccc1)N1CCCC(n2cncn2)C1` (configuration not stated) | 21.23 | -2.641 |
| `O=C1N(c2ccsc2)CCC12CCCN(c1ncc(F)cn1)C2` (configuration not stated) | 15.58 | -1.726 |
| `Cc1cnn(CC(C)NCc2csc(-c3cccs3)n2)c1` (configuration not stated) | 32.07 | 12.26 |
| `CN1CCN(S(=O)(=O)c2ccc3c(c2)CN(C(=O)C(C)(C)C)CC3)CC1` | -22.65 | -0.6331 |
| `[H][C@]12CCN(C(=O)Cc3ccc(C)cc3)[C@@]1([H])CCC(=O)N2` | -7.005 and -30.86 | -1.43 |
| `O=C(NCC(=O)N1CCc2ccccc2C1)c1cnccn1` | -1.805 and 75.85 | -12.88 |
| `COC(=O)c1cccc(NS(=O)(=O)c2cnc(NC(C)=O)s2)c1` | -19.72 | -21.34 |
| `COc1ccc(S(=O)(=O)NCCC(O)c2ccccc2)c(C)c1` (configuration not stated) | 5.783 and 8.26 | -7.671 |
| `CC[C@@]1(O)CCN(C(=O)c2ccoc2)C[C@H]1O` | 6.839 | -10.15 and -14.29 |
| `CCC(O)CN1CCN(C(=O)c2ccn(-c3cccc(F)c3)n2)CC1` (configuration not stated) | -4.569 | -14.37 |
| `CCOc1ccnc(N2CCCN(C(=O)c3cc[nH]c3C)CC2)n1` | -11.92 | -6.173 |
| `Cc1noc(C)c1CN1CCc2ncnc(-c3ccoc3)c2CC1.O=C(O)C(F)(F)F` | -38.48 | -11.14 |
| `O=C(O)C(F)(F)F.[H][C@]12CCN(Cc3c(C)noc3C)[C@@]1([H])CC[C@H](COCC)O2` | -10.62 and -5.304 | -14.26 |
| `CC(C)OCCN1CCN(c2ccc(Cl)cn2)CC1` | -7.753 | -9.183 |
| `c1ccc(CCCC2CN(Cc3ncc[nH]3)CCO2)cc1` (configuration not stated) | 3.904 and 8.22 | 10.56 |
| `CN(C)c1cc(C2CCCN2C(=O)c2noc3c2CCCC3)ccn1` (configuration not stated) | -0.1032 | -5.549 |
| `CC(C)C(=O)N1CCC(c2nc(O)cc(-c3ccncc3)n2)CC1` | 20.25 | -9.565 |
| `O=C(c1nc(Cc2c[nH]c3ccccc23)no1)N1CCOCC1` | 1.145 | -15.57 |
| `[H][C@]12CCN(c3cc(OC)ncn3)[C@@]1([H])C[C@H](C(=O)NCCN(C)C)O2` | -26.78 | -22.02 |
| `CCSc1ccc(C(=O)N2CCCCC2C(=O)N2CCCC2)cn1` (configuration not stated) | -19.85 | -8.147 |
| `Cc1cc(C)c(CNC(=O)NCc2nnc3n2CCCC3)c(=O)[nH]1` | -14.06 | -7.792 |
| `O=C(O)C(F)(F)F.[H][C@@]12C[C@@H](c3nc(C)no3)CN(C(C)C)[C@]1([H])CCO2` | 16.77 | 7.736 |
| `Clc1cncc(NCc2cccc(COC3CCOCC3)c2)n1` | 23.25 and 22 | 20.43 |
| `c1cncc(-c2noc(CN3CCCC3Cn3cccn3)n2)c1` (configuration not stated) | -22.32 | 10.83 |
| `COc1ccccc1CC1CCCN(C(=O)c2n[nH]c3c2CCC3)C1` (configuration not stated) | -7.761 | 0.03627 |
| `O=C(c1cccnc1N1CCCC1)N1CCOC(c2ccccc2)C1` (configuration not stated) | 8.98 | -2.817 |
| `[H][C@@]12CCCCCN(C(C)=O)[C@@]1([H])[C@H](c1cccc(F)c1)CN2C(=O)C1CC1` | -9.081 | 3.472 and -17.56 |
| `Cc1nc(C)c(C(=O)N2CCc3nnc(C4CCCN4C)n3CC2)s1` (configuration not stated) | -8.597 | 18.91 and 5.568 |
| `Cc1nc(C)n(CC2CCCN2Cc2ccccn2)n1` (configuration not stated) | -4.911 | 5.718 |
| `COC(=O)C(C)(C)NC(=O)C1CC(=O)N(C2CCCC2)C1` (configuration not stated) | 9.025 | -7.029 |
| `Cn1nc(C2CCCN2)c2c(C(=O)NCC(F)(F)F)cc(C3CC3)nc21` (configuration not stated) | 25.42 | 4.013 |
| `CCOc1cc(C(=O)N(C)C)ccc1NC(=O)c1ccsc1` | -12.23 | 17.95 and 5.132 |
| `COc1ccc2c(c1)OCC(Cc1cc(N3CCCC3)cnn1)C2` (configuration not stated) | 36.69 | 24.44 |
| `CC(C)c1noc(CN2CCCN(Cc3cccs3)CC2)n1` | 42.46 | -3.256 |
| `O=C(NCCCN1CCc2ccccc2C1)c1cccnc1O` | 3.305 | -11.87 |
| `Cc1cc(CN(C)C(=O)c2cccc(CCC(C)(C)O)c2)no1` | -35.23 | 3.085 and -24.62 |
| `Cc1cnn(C2CCCN(C(=O)c3cc4nc(C)ccc4o3)C2)c1` (configuration not stated) | 5.263 | -5.982 |
| `CCCc1cc(NC2CCN(Cc3ccccn3)CC2)n2nccc2n1` | -22.31 | -18.4 |
| `Cc1cc(C)c(CNC(=O)NCCc2cccnc2)c(=O)[nH]1` | -6.71 and 0.1565 | -3.315 |
| `Cc1nc(CN2CCCC2c2c(C)nn(C)c2Cl)oc1C` (configuration not stated) | -32.61 | -35.07 |
| `CCc1nc(C2CCCN2C(=O)CCc2cccs2)no1` (configuration not stated) | 24.37 | -2.145 |
| `O=C1CN(C(=O)C2CCCOC2)CCN1Cc1ccc(Cl)cc1` (configuration not stated) | 19.18 | 4.028 |
| `CC(=O)c1cccc(OC(C)C(=O)Nc2cnn(CCN(C)C)c2)c1` (configuration not stated) | -0.8766 and -30.38 | 12.68 |
| `CC(c1cccnc1)N(C)C(=O)NCCOc1ccc(C#N)cc1` (configuration not stated) | 17.92 | -2.334 |
| `O=C(c1ccncc1F)N1CCN(CC2CC2)c2ncccc2C1` | -22.97 | -17.84 |
| `CC(=O)N1CCCC(C(=O)NCc2noc(Cc3ccccc3)n2)C1` (configuration not stated) | -2.142 and 5.341 | 4.219 |
| `CCC(C#N)NC(=O)c1sccc1OC` (configuration not stated) | -2.548 | -4.311 |
| `CCOC(=O)C1(NC(=O)CCNc2cc(C)ccc2OC)CCCCC1` | 5.629 | -10.9 |
| `O=C(O)C(F)(F)F.[H][C@@]12CCN(c3ncccn3)C[C@]1([H])[C@H](C(=O)NCc1ccco1)CCO2` | -14.31 | -26.78 |
| `CC1=C(C#N)C(=O)NC(=O)/C1=C\c1c(C)nn(-c2ccc(Cl)cc2)c1O` | 3.637 | -1.99 |
| `CC(C)C(=O)NS(=O)(=O)c1ccc2c(c1)N(C)CCC2` | 3.043 | -17.97 |
| `COCCn1cnnc1CN(C)c1nc(N)ncc1C` | -19.07 | -3.211 |
| `CCc1nnc(Nc2cccc(C3CCN(C)CC3)n2)s1` | -82.24 | -0.9578 |
| `CCc1nc(C(=O)N2CCN(C(=O)CCc3ccccc3)CC2)c[nH]1` | 1.029 | 5.736 |
| `c1ccc(CO[C@H]2CO[C@@]3(CCCN(Cc4ccncc4)C3)C2)nc1` | 15.03 | -18.79 |
| `CSCCC(C)(O)CNC(=O)Nc1ccccc1C` (configuration not stated) | -0.5245 and 5.645 | 15.94 |
| `CCC1CCCCN1C(=O)Cn1nc(-c2cc(C)oc2C)cc(N)c1=O` (configuration not stated) | 3.622 | 3.742 and 11.65 |
| `COc1cccc(CN2CCC(O)(c3ccc(C)cn3)CC2)c1OC` | -42.21 and -2.666 | -10.47 and -19.97 |
| `CC(C)c1cc(N[C@H](C(N)=O)C(C)C)n2nccc2n1` | 17.78 | -6.859 |
| `COc1ccc(N2CCNC(C(N)=O)C2)cc1` (configuration not stated) | 25.96 | -6.143 |
| `CC(=O)N1CCCC2(CCN(Cc3ccc(Cl)c(F)c3)C2)C1` (configuration not stated) | -3.831 and 10.73 | 16.71 |
| `O=C(O)C(F)(F)F.O=C(c1cnccn1)N1CCc2ncnc(-c3cccnc3)c2CC1` | 3.149 | -3.294 |
| `Cc1nc(NC(=O)OC(C)(C)C)sc1C(N)=O` | -32.95 | -7.666 |
| `CN(C)c1ccc(C2CC(=O)Nc3c2cnn3Cc2ccco2)cc1` (configuration not stated) | 20.32 | 2.899 |
| `CCC1c2cccn2CCN1S(=O)(=O)N1CCOCC1` (configuration not stated) | -29.48 | -9.033 and -6.113 |

The first 8 entries again:

| compound | A | B |
|---|---|---|
| `CCOCC1COCCC12CCN(C(=O)C1=CCCC1)CC2` (configuration not stated) | -4.181 and -16.13 | 2.003 |
| `CN1CC(c2ccccc2)CC2(CCN(Cc3ncc[nH]3)CC2)C1` (configuration not stated) | 2.241 and -7.848 | 23.74 |
| `O=C(CCCOc1ccccc1)N1CCCC(n2cncn2)C1` (configuration not stated) | 21.23 | -2.641 |
| `O=C1N(c2ccsc2)CCC12CCCN(c1ncc(F)cn1)C2` (configuration not stated) | 15.58 | -1.726 |
| `Cc1cnn(CC(C)NCc2csc(-c3cccs3)n2)c1` (configuration not stated) | 32.07 | 12.26 |
| `CN1CCN(S(=O)(=O)c2ccc3c(c2)CN(C(=O)C(C)(C)C)CC3)CC1` | -22.65 | -0.6331 |
| `[H][C@]12CCN(C(=O)Cc3ccc(C)cc3)[C@@]1([H])CCC(=O)N2` | -7.005 and -30.86 | -1.43 |
| `O=C(NCC(=O)N1CCc2ccccc2C1)c1cnccn1` | -1.805 and 75.85 | -12.88 |

From ChEMBL document CHEMBL3988442, “University of Dundee, Small-Polar-MMV Screening Library” (2021).